Measurements taken from article PMC10247727, “Stabilization of pre-existing neurotensin receptor conformational states by β-arrestin-1 and the biased allosteric modulator ML314” (Nature Communications, 2023).
Results are given in words; binding and its absence hold for the method and conditions named. Binding can be weak; no strength is given. Sequences can lack the tags named with a protein.

Columns and labels:
[1] = molecular target: NT8-13:enNTS1ΔM4 complex (rat | not stated); assay: NMR (1H-13C HMQC spectra); 66 μM [13CεH3-methionine]-enNTS1ΔM4 with NT8-13 and ML314 (500 μM each), 130 μM PIP2 and 2.3x molar equivalents βArr1-3A, 298 K; both purified
[2] = molecular target: NT8-13:enNTS1ΔM4 complex (rat | not stated); assay: NMR titration; 1H-13C SOFAST-HMQC of 66 μM [13CεH3-methionine]-enNTS1ΔM4 with 500 μM NT8-13, 130 μM PIP2 and 0.3-3x molar equivalents of unlabelled βArr1-3A; DDM, 50 mM potassium phosphate pH 7.4, 100 mM NaCl, 298 K; without PIP2 only limited spectral changes; both purified

B1: βArr1-3A (pre-activated cysteine-free human β-arrestin-1, I386A/V387A/F388A), tags removed (natural protein)
chain: GPSGDKGTRVFKKASPNGKLTVYLGKRDFVDHIDLVDPVDGVVLVDPEYLKERRVYVTLTVAFRYGREDLDVLGLTFRKDLFVANVQSFPPAPEDKKPLTRLQERLIKKLGEHAYPFTFEIPPNLPSSVTLQPGPEDTGKALGVDYEVKAFVAENLEEKIHKRNSVRLVIRKVQYAPERPGPQPTAETTRQFLMSDKPLHLEASLDKEIYYHGEPISVNVHVTNNTNKTVKKIKISVRQYADIVLFNTAQYKVPVAMEEADDTVAPSSTFSKVYTLTPFLANNREKRGLALDGKLKHEDTNLASSTLLREGANREILGIIVSYKVKVKLVVSRGGLLGDLASSDVAVELPFTLMHPKPKEEPPHREVPENETPVDTNLIELDTNDDDAAAEDFARQRLKGMKDDKEEEEDGTGSPQLNNR
notes: residues left after HRV 3C cleavage (so in the source); human β-arrestin-1, cysteine-free, 3A mutant; Used in the NMR experiments, unlabelled or [U-15N,13C,2H]-labelled; also called hβArr1-3A; βArr-3A; source: E. coli BL21(DE3), purified (Ni-NTA, HRV 3C cleavage, HiTrap Q, SEC); not shown: His6, N-terminal, cleaved; Protein C tag, N-terminal, cleaved
binding [1]: binds | binding [2]: binds
